PubChem BioAssay AID652272, Drosophila RNAi Screening Center | 2013
Assay: 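Finding fly genes that regulate Hedgehog signal transduction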 (primary screen). Cell system: Drosophila clone 8 (Cl8) cells. Reagent: long dsRNA against Drosophila genes. Measurement: 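Firefly light from a Hedgehog-responsive ptc promoter reporter and Renilla reference light, both read on a plate reader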. Direction: firefly Hh reporter signal: higher = more ptc reporter light; Renilla reference signal: higher = more Renilla control light. Active means: 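Called a hit if the two-replicate mean z-score lies below -2 or above +3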. Meaning of the calls: active = hit: reporter lowered or raised; inactive = not a hit.
The screen tested about 21,000 reagents; below is an unselected part of those that have a named target and a result. Over the whole deposit, 503 (2.4%) are marked active. 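Raw plate light values, not normalised; calls rest on replicate z-scores that were not deposited; hits include reporter decreases as well as increases.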 Unmarked entries are inactive. A plus sign joins genes that one reagent is predicted to hit. Reagent sequences are not shown. Not given: the amount of reagent, the time to read-out.

| gene | dsRNA | firefly Hh reporter signal, replicate 1 | firefly Hh reporter signal, replicate 2 | firefly Hh reporter signal, replicate 3 | Renilla reference signal, replicate 1 | Renilla reference signal, replicate 2 |
| --- | --- | --- | --- | --- | --- | --- |
| ND5 (retired record) (GeneID 192478) | DRSC21281 | 84864 | 2.70e5 | – | 1043 | 11699 |
| Klp10A (GeneID 32049) | DRSC19601 | 1.15e5 | 52427 | – | 3047 | 1680 |
| rdgA (GeneID 31826) | DRSC17863 | 60425 | 2.91e5 | – | 2636 | 12029 |
| rdgA (GeneID 31826) | DRSC18036 | 90356 | 3.09e5 | – | 3082 | 12951 |
| rdgA (GeneID 31826) | DRSC18827 | 1.01e5 | 92013 | – | 2528 | 2240 |
| Fancm (GeneID 42543) | DRSC16348 | 1.05e5 | 82104 | – | 4711 | 3125 |
| ATP8A (GeneID 36488) | DRSC05421 | 1.27e5 | 2.16e5 | – | 3169 | 8853 |
| ATP8A (GeneID 36488) | DRSC06643 | 88188 | 62624 | – | 3732 | 2784 |
| ATP8A (GeneID 36488) | DRSC06644 | 52217 | 54426 | – | 1408 | 3604 |
| eIF2Balpha (GeneID 43549) | DRSC16332 | 1.21e5 | 64929 | – | 3092 | 2085 |
| CG15093 (GeneID 37166) | DRSC06522 | 1.59e5 | 1.11e5 | – | 7037 | 4528 |
| pic (GeneID 41611) | DRSC16639 | 1.09e5 | 95872 | – | 4178 | 3544 |
| PGAP5 (GeneID 34116) | DRSC03089 | 91127 | 70967 | – | 2245 | 5520 |
| tea (GeneID 36027) | DRSC06110 | 40219 | 46659 | – | 1820 | 1684 |
| tea (GeneID 36027) | DRSC06236 | 99208 | 51352 | – | 2656 | 4058 |
| CG18814 (GeneID 59175) | DRSC10347 | 98365 | – | – | 2106 | 2971 |
| CG33234 (GeneID 2769006) | DRSC07994 | 1.01e5 | 1.95e5 | – | 2634 | 8162 |
| ATPsyndelta (GeneID 31950) | DRSC18248 | 35158 | 1.78e5 | – | 1249 | 5562 |
| ZnT77C (GeneID 40271) | DRSC11766 | 1.16e5 | 96368 | – | 4240 | 2698 |
| ZnT77C (GeneID 40271) | DRSC11767 | 1.33e5 | 1.05e5 | – | 4309 | 3101 |
| CG34263 (GeneID 5740488) | DRSC07866 | 1.76e5 | 3.21e5 | – | 5376 | 14397 |

Part of the list above, reformatted.
{"gene":"tea (GeneID 36027)","dsRNA":"DRSC06236","firefly Hh reporter signal, replicate 1":99208,"firefly Hh reporter signal, replicate 2":51352,"Renilla reference signal, replicate 1":2656,"Renilla reference signal, replicate 2":4058}
{"gene":"CG18814 (GeneID 59175)","dsRNA":"DRSC10347","firefly Hh reporter signal, replicate 1":98365,"Renilla reference signal, replicate 1":2106,"Renilla reference signal, replicate 2":2971}
{"gene":"CG33234 (GeneID 2769006)","dsRNA":"DRSC07994","firefly Hh reporter signal, replicate 1":1.01e5,"firefly Hh reporter signal, replicate 2":1.95e5,"Renilla reference signal, replicate 1":2634,"Renilla reference signal, replicate 2":8162}
{"gene":"ATPsyndelta (GeneID 31950)","dsRNA":"DRSC18248","firefly Hh reporter signal, replicate 1":35158,"firefly Hh reporter signal, replicate 2":1.78e5,"Renilla reference signal, replicate 1":1249,"Renilla reference signal, replicate 2":5562}
{"gene":"ZnT77C (GeneID 40271)","dsRNA":"DRSC11766","firefly Hh reporter signal, replicate 1":1.16e5,"firefly Hh reporter signal, replicate 2":96368,"Renilla reference signal, replicate 1":4240,"Renilla reference signal, replicate 2":2698}
{"gene":"ZnT77C (GeneID 40271)","dsRNA":"DRSC11767","firefly Hh reporter signal, replicate 1":1.33e5,"firefly Hh reporter signal, replicate 2":1.05e5,"Renilla reference signal, replicate 1":4309,"Renilla reference signal, replicate 2":3101}
{"gene":"CG34263 (GeneID 5740488)","dsRNA":"DRSC07866","firefly Hh reporter signal, replicate 1":1.76e5,"firefly Hh reporter signal, replicate 2":3.21e5,"Renilla reference signal, replicate 1":5376,"Renilla reference signal, replicate 2":14397}

Additional records:
| gene | dsRNA | firefly Hh reporter signal, replicate 1 | firefly Hh reporter signal, replicate 2 | firefly Hh reporter signal, replicate 3 | Renilla reference signal, replicate 1 | Renilla reference signal, replicate 2 |
| --- | --- | --- | --- | --- | --- | --- |
| CG31098 (GeneID 43057) | DRSC14259 | 5.90e5 | 1.19e5 | – | 25799 | 3255 |
| kl-2 (GeneID 3355181) | DRSC21136 | 64677 | 1.98e5 | – | 2291 | 9049 |
| mid (GeneID 33770) | DRSC02977 | 1.13e5 | 6.62e5 | 75707 | 1888 | 34114 |
| Frmd5 (GeneID 34398) | DRSC02802 | 1.05e5 | 45493 | – | 3242 | 4913 |
| GstD3 (GeneID 48336) | DRSC15571 | 66618 | 73786 | – | 2476 | 2295 |
| CG5402 (GeneID 43306) | DRSC15792 | 66496 | 92493 | – | 1908 | 2722 |
| Ent1 (GeneID 33207) | DRSC00330 | 1.18e5 | 69540 | – | 4983 | 3208 |
| Cyp9f2 (GeneID 41520) | DRSC16635 | 1.59e5 | 90624 | – | 6145 | 3680 |
| CG34203 (GeneID 5740243) | DRSC03855 | 1.43e5 | 2.40e5 | – | 3916 | 10728 |
| AIMP1 (GeneID 35892) | DRSC07118 | 1.06e5 | 83082 | – | 2472 | 6266 |
| Nox (GeneID 5740310) | DRSC06596 | 1.00e5 | 59881 | – | 2676 | 3988 |
| Nox (GeneID 5740310) | DRSC06857 | 78656 | 59732 | – | 2033 | 3857 |
| Dic1 (GeneID 41640) | DRSC14125 | 1.39e5 | 63261 | – | 5635 | 1610 |
| Abcd1 (GeneID 43772) | DRSC17157 | 1.82e5 | 1.01e5 | – | 3782 | 4148 |
| VhaM9.7-d (GeneID 42041) | DRSC15028 | 47796 | 54937 | – | 1185 | 1691 |
| slim (GeneID 37121) | DRSC06921 | 1.09e5 | 79129 | – | 4294 | 3280 |
| CG13970 (GeneID 2768911) | DRSC02311 | 65894 | 52057 | – | 1792 | 4631 |
| CG34249 (retired record) (GeneID 5740397) | DRSC09431 | 2.24e5 | – | – | 5236 | – |
| Gem4b + Gem4c | DRSC17294 | 4.41e5 | 2.51e5 | – | 20973 | 4312 |
| trk (GeneID 34376) | DRSC03625 | 81056 | 41355 | – | 2181 | 4512 |
| CG11656 (GeneID 41600) | DRSC14338 | 1.17e5 | 77496 | – | 4589 | 3459 |
| CG13202 (GeneID 36222) | DRSC06326 | 1.00e5 | 99497 | – | 2697 | 6188 |
| CG10804 (GeneID 31317) | DRSC17764 | 1.74e5 | 1.10e5 | – | 3810 | 4154 |
| Dd (GeneID 33107) | DRSC20539 | 1.06e5 | 1.06e5 | – | 2485 | 2774 |
| nSMase (GeneID 38396) | DRSC08237 | 1.12e5 | 63889 | – | 5533 | 3048 |
| CG9175 (GeneID 33862) | DRSC03153 | 1.40e5 | 90085 | – | 6264 | 3536 |
| CG16837 (GeneID 37904) | DRSC04283 | 94588 | 61633 | – | 2036 | 4049 |
| CG15096 (GeneID 37170) | DRSC06525 | 1.51e5 | 1.15e5 | – | 5748 | 3882 |
| ss (GeneID 41988) | DRSC17069 | 65186 | 87686 | – | 2032 | 2214 |
| CG32100 (GeneID 39400) | DRSC09725 | 40242 | 34304 | 47462 | 3641 | 3363 |
| CG32100 (GeneID 39400) | DRSC10331 | 43302 | 35146 | 58864 | 3664 | 3669 |
| mbl (GeneID 36945) | DRSC05657 | 5.73e5 | 1.25e5 | 86521 | 4376 | 4007 |
| mbl (GeneID 36945) | DRSC06449 | 59173 | 62660 | – | 3505 | 2689 |
| mbl (GeneID 36945) | DRSC07651 | 51830 | 19905 | – | 1562 | 1629 |
| qsm (GeneID 47065) | DRSC05896 | 1.20e5 | 2.83e5 | – | 3331 | 10794 |
| qsm (GeneID 47065) | DRSC06393 | 52480 | 48880 | – | 1684 | 3179 |
